Measurements published in patent US20230340151A1.
Results are given in words; binding and its absence hold for the method and conditions named. Some results given as binding are weak or reduced against the parent protein; the word gives no strength.

Sequences of proteins named here, by UniProt entry; tags and fusion partners are left off. A change or cut given only in a name is not applied to a line headed by its entry.
UniProt P25092: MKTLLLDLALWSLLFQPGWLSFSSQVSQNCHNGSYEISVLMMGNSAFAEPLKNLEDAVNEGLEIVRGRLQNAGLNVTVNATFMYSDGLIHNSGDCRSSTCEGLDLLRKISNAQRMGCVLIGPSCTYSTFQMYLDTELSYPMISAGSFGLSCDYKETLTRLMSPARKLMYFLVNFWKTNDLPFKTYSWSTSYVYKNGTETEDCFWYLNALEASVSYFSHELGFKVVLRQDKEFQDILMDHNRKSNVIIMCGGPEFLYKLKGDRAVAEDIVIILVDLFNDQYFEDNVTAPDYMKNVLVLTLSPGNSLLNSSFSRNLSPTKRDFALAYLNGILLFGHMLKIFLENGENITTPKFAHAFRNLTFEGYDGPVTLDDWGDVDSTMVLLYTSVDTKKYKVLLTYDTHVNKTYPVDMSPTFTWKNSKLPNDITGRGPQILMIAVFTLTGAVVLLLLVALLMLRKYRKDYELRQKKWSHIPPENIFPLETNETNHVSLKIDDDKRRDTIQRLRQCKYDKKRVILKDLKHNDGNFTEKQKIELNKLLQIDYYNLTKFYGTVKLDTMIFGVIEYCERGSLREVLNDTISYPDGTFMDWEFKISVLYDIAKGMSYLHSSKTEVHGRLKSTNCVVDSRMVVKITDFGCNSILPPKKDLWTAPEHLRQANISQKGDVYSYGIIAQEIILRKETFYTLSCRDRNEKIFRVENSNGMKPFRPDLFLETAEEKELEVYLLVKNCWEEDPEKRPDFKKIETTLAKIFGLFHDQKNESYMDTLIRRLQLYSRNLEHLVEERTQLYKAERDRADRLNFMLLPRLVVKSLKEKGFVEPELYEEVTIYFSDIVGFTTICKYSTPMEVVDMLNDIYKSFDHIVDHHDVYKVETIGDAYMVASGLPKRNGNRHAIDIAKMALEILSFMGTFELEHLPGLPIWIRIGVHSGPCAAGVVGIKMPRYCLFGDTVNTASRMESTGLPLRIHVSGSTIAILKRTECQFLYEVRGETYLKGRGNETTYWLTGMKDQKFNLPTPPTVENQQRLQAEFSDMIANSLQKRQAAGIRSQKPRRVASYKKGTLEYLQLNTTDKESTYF

Target: Human GUCY2C full length (SEQ ID NO: 224), recombinant protein (human) (UniProt P25092)
Experiment: SPR, IgG captured by anti-human Fc

B1: GUCY2C-0486 (antibody, human IgG1, kappa, V domains shown)
VH: EVQLVESGGGLVQPGGSLRLSCAASGYTFTSYWMHWVRQAPGKGLEWIGEIKPSNGLTNVHEKFKNRFTISVDKAKNSAYLQMNSLRAEDTAVYYCTRTITTTEGYWFFDVWGQGTLVTVSS
VL: DIQLTQSPSSLSASVGDRVTITCRASESVDYYGSSLLQWYQQKPGKAPKLLIYAASKLASGVPSRFSGSGSGTDFTLTISSLQPEDFATYYCQQTRKAYTFGQGTKLEIKR
binding: binds
